{"sequences": {"note": "Chains of the proteins cited; added tags and fusions are not shown.", "UniProt Q99683": "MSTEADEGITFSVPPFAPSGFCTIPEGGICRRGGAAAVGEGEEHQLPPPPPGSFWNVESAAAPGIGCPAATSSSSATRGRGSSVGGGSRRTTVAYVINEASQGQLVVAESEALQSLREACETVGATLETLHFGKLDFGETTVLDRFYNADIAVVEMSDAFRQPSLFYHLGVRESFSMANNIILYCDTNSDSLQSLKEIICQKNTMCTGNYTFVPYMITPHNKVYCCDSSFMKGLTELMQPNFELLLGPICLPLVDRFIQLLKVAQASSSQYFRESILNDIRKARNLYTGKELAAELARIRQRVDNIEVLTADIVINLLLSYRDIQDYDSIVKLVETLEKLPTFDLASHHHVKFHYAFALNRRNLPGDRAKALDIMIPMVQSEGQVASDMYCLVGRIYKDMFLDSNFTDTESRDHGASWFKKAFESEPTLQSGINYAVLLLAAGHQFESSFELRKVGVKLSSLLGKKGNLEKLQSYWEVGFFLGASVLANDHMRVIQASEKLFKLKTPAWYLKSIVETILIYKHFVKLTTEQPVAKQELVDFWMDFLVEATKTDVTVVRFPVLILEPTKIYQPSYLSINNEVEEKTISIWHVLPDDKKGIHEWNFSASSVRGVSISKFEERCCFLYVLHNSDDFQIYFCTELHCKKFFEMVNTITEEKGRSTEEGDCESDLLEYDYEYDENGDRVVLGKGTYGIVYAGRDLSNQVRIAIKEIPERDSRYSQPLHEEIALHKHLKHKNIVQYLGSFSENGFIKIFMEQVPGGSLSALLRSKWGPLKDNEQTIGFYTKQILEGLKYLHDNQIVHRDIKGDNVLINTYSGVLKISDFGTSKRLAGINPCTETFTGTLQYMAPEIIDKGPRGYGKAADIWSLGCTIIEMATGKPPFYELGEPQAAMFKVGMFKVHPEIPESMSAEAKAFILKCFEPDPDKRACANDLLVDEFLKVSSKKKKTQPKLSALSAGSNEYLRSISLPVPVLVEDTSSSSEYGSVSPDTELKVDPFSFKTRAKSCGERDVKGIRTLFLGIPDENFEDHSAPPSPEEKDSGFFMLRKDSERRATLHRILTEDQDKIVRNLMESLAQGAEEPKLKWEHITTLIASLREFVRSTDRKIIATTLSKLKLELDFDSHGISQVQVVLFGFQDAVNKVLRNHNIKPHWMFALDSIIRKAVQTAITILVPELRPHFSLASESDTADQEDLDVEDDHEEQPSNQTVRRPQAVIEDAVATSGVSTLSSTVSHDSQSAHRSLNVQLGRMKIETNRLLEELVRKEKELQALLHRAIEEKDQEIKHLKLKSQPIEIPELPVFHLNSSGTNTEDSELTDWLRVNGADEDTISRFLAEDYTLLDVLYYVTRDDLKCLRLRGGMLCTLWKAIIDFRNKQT"}, "source": "paper PMC8160069", "binders": {"B1": {"name": "GSTM1 (enzyme, UniProt P10649 1-218)", "chain": "MPMILGYWNVRGLTHPIRMLLEYTDSSYDEKRYTMGDAPDFDRSQWLNEKFKLGLDFPNLPYLIDGSHKITQSNAILRYLARKHHLDGETEEERIRADIVENQVMDTRMQLIMLCYNPDFEKQKPEFLKTIPEKMKLYSEFLGKRPWFAGDKVTYVDFLAYDILDQYRMFEPKCLDAFPNLRDFLARFEGLKKISAYMKSSRYIATPIFSKMAHWSNK"}}, "target": "FLAG-tagged ASK1 (UniProt Q99683)", "experiment": "co-IP; FLAG-tagged ASK1 produced in HEK293T cells incubated with purified GSTM1 in the presence of EA and cela before immunoprecipitation; in vitro, performed in duplicate; only the binder purified", "note": "These are yes or no findings as the source states them, for the method shown. In cells and extracts the contact can be indirect. Some entries that bind do so weakly or less than the wild type. Where a sequence is shown, tags or fusion partners need not be part of it.", "data": [{"binder": "B1", "values": [{"measurement": "binding", "value": "binds"}]}]}
